Consider 38 compounds from PubChem BioAssay AID2685 (National Center for Advancing Translational Sciences (NCATS), 2010).

This is one part of the list. These are further read-outs of the screen, such as a control signal, another cell line or another target. No call is given for them. Most of these compounds were active or inconclusive in the main read-out, so they are no random draw. The note in brackets gives the kind of curve behind each potency; many fits are weak.

This experiment is described as follows: qHTS Assay for Lipid Storage Modulators in Drosophila S3 Cells.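 On cell number change: cells counted by Cell Tracker Red CMTPX staining in the red channel.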 The note with it: BODIPY lipid droplet fluorescence, 18-24 h; for cell number change: measured here: cell count max response, cells fed with added oleic acid. A digest of the protocol: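 Drosophila S3 cells loaded with oleic acid (400 uM, as added) and compounds at several concentrations; lipid droplets imaged by 488-nm laser-scanning cytometry, 500–530 nm intensity and object ratio to cell channel. Percent activity normalized to 20 uM Triacsin C.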

Where [1] appears, read: measured here: cell number channel AC50, cells fed with added oleic acid.
Setting [2] is: measured here: lipid fluorescence (Fed channel) AC50, cells fed with added oleic acid.

In general, AC50 refers to the concentration at which the activity in the assay is half-maximal. Low readings indicate greater potency, high ones weaker potency. For the compound `CC1CC(C)CN(CC(=O)c2c[nH]c3ccccc23)C1` (configuration not stated), the cell number change came out at 32.4%. Also, the AC50 under setting [1] is 20.6 µM [rising, single point]. For the same compound, the concentration at half-maximal activity (AC50) under setting [2] was 20.6 µM [rising, single point].
As to `Cc1ccc(C(=O)NC2CCN(C(=O)Nc3ccccc3)CC2)cc1`, the cell number change was 26.2%. Under setting [2], the AC50 is 29.1 µM [rising, single point].
Take `Cc1cccc(C)c1OCC(=O)Nc1c(C)nn(C)c1C`: the cell number change came out at 19%. Under setting [1], the AC50 is 3.26 µM [rising, single point].
Regarding `CCOC(=O)N1CCN(c2nc3ccc(C)cc3n3cnnc23)CC1`, the cell number change came to 2.78%. Moreover, the AC50 under setting [2] is 6.51 µM [rising, single point].
In the case of `Cc1nn(-c2ccccc2)c(=S)n1-c1ccccc1`, under setting [2], the AC50 was 25.9 µM [falling, partial curve].
Regarding `O=C(/C=C/c1ccccc1Cl)Nc1cccnc1`, the cell number change is -15.1%. Also, the half-maximal activity concentration (AC50) under setting [2] is 29.1 µM [falling, single point].
Regarding `CCC(C(=O)Nc1cc(Cl)ccc1OC)c1ccccc1` (configuration not stated), the cell number change turned out to be 33.6%. For the same compound, the concentration at half-maximal activity (AC50) under setting [1] is 8.2 µM [rising, partial curve]. Further, the half-maximal activity concentration (AC50) under setting [2] is 13 µM [rising, partial curve].
For the compound `Cc1cc(C)nc(SCC(=O)N/N=C/c2cccnc2)n1`, the cell number change came out at 4.34%. For the same compound, under setting [2], the AC50 was 0.13 µM [falling, full curve, poor fit].
Consider `COc1cccc(CCNC(=O)c2cccc(NC(=O)C3=C(C)OCCS3)c2)c1`, for which the cell number change was -14.3%. Also, under setting [2], the AC50 is 13 µM [falling, partial curve].
Consider `O=C(CCn1cnnn1)Nc1ccc(F)cc1`, for which the cell number change was -36.6%. The concentration at half-maximal activity (AC50) under setting [1] was 1.84 µM [falling, full curve, poor fit]. Further, under setting [2], the AC50 was 2.06 µM [falling, full curve, poor fit].
For the compound `COc1c(F)c(F)c(C(=O)Nc2ccc3oc(-c4ccncc4)nc3c2)c(F)c1F`, the cell number change is 16.4%. The AC50 under setting [2] is 0.13 µM [rising, full curve, poor fit].
For the compound `CC(C)CCN1CCN(CCCc2ccccc2)CC1CCO` (configuration not stated), the cell number change is -1.76%. Besides, the AC50 under setting [2] is 0.00461 µM [falling, full curve, poor fit].
In the case of `COc1cccc(S(=O)(=O)NCc2ccc(C(=O)N3CCN(c4ccccc4)CC3)cc2)c1`, the cell number change was -18.8%. Further, the AC50 under setting [2] is 0.00461 µM [falling, full curve, poor fit].
With `COc1ccc2c(c1OC)C(=O)N1C2SC(C)(C)[C@H]1C(=O)NC1CC1` (some centres not stated), the cell number change came to 39.2%. The AC50 under setting [2] was 29.1 µM [rising, single point].
Turning to `C=CCNCCOc1ccccc1-c1ccccc1`, the AC50 by setting is: under setting [1], 4.11 µM [rising, single point]; under setting [2], 0.0058 µM [falling, full curve, poor fit].
Consider `COc1ccc(C(=O)N2CCC(C(=O)Nc3ccc4c(c3)OCCO4)CC2)cc1`, for which the cell number change turned out to be 70.4%. The half-maximal activity concentration (AC50) under setting [1] is 29.1 µM [rising, single point]. The AC50 under setting [2] is 23.1 µM [rising, partial curve].
On to `O=C(Nc1ccc(F)c(Cl)c1)Nc1ccc(Cl)cn1`, for which the cell number change is -29.8%. The AC50 under setting [2] was 29.1 µM [falling, single point].
In the case of `Cc1nc(C)c(-c2ccc(SCC(=O)Nc3cccc(Cl)c3)nn2)s1`, the cell number change is 13.9%.
Consider `COCc1cc(C(C)=O)ccc1OC`, for which the cell number change came out at 3.6%. Under setting [2], the AC50 was 1.03 µM [falling, partial curve].
In the case of `O=C(O)C1C2CCC(C2)C1C(=O)Nc1nc2ccccc2s1` (configuration not stated), the cell number change came to 9.61%.
As for `COc1cccc(-c2cc3nc4c(c(N5CCC6(CC5)OCCO6)n3n2)CCC4)c1`, the cell number change was -38.9%. Also, under setting [1], the AC50 is 1.16 µM [falling, partial curve]. The half-maximal activity concentration (AC50) under setting [2] was 32.6 µM [falling, partial curve, poor fit].
On to `COc1cccc(-c2nc(-c3ccccc3)no2)c1`, for which the cell number change stood at 1.79%. In addition, under setting [2], the AC50 was 1.3 µM [rising, full curve].
As for `CS(=O)(=O)N(CC(=O)Nc1ccccc1-c1ccccc1)c1ccc(F)cc1`, the cell number change was determined as 12.9%. Under setting [2], the AC50 is 0.206 µM [rising, full curve, poor fit].
For the compound `O=[N+]([O-])c1ccc(C2CN=C(Nc3ccccc3)S2)cc1` (configuration not stated), the cell number change is 4.47%. Besides, under setting [2], the AC50 was 5.17 µM [rising, partial curve, poor fit].
As for `COc1cccc(NC(=O)CN2C(=O)NC(CCc3ccccc3)C2=O)c1` (configuration not stated), the cell number change stood at 0.402%. Besides, under setting [2], the AC50 is 29.1 µM [rising, single point].
As to `Cn1c2ccccc2c(=O)c2ccc(C#Cc3ccccn3)cc21`, the AC50 under setting [2] was 18.4 µM [falling, partial curve].
Turning to `COc1ccc2cc(C)c3nnc(SCC(=O)Nc4nc(-c5ccccc5)cs4)n3c2c1`, the cell number change was -21.9%. The AC50 under setting [2] was 0.461 µM [falling, full curve].
Take `CCNC(=O)Cn1cc(C(F)(F)F)cc(Cl)c1=O`: the cell number change is -31.9%. The AC50 under setting [1] was 1.16 µM [falling, full curve, poor fit]. Also, under setting [2], the AC50 is 18.4 µM [falling, partial curve, poor fit].
For the compound `Fc1cccc(F)c1-n1c(CN2CCOCC2)csc1=S`, the cell number change was 24.3%. In addition, the AC50 under setting [2] is 1.84 µM [rising, single point].
For the compound `CC(C)Sc1nc(O)c(Cc2ccccc2)c(=O)[nH]1`, the cell number change is -19.9%. The AC50 under setting [1] is 0.00411 µM [falling, full curve, poor fit].
Consider `O=C(CCCSc1nc2ccccc2s1)NCc1ccco1`, for which, under setting [2], the concentration at half-maximal activity (AC50) was 10.3 µM [falling, partial curve].
Take `CCOc1ccc(C2/C(=C(/O)c3ccc(Cl)cc3)C(=O)C(=O)N2CCCN(C)C)cc1OC` (configuration not stated): the cell number change came to 4.1%. In addition, the AC50 under setting [2] is 6.51 µM [rising, single point].
Turning to `COc1ccccc1N1CCN(c2ccc([N+](=O)[O-])cc2Cl)CC1`, the cell number change was -43.9%. The AC50 under setting [1] was 2.31 µM [falling, full curve]. For the same compound, under setting [2], the AC50 is 0.58 µM [falling, full curve].
For the compound `CCCCN(C(=O)c1[nH]c(C)c(C(C)=O)c1C)c1c(N)n(CCCC)c(=O)[nH]c1=O`, the cell number change was -42.8%. In addition, the AC50 under setting [1] is 2.06 µM [falling, full curve]. In addition, the AC50 under setting [2] is 5.8 µM [falling, partial curve].
Consider `O=C(O)COc1ccc(-c2nccc(-c3cccs3)n2)cc1`, for which the cell number change came out at 63%.
On to `CCOC(=O)C1CCN(S(=O)(=O)c2ccc3c(c2)CC(C)N3C(=O)C2CCC2)CC1` (configuration not stated), for which the cell number change turned out to be 12.6%.
Consider `COc1ccc(NS(=O)(=O)c2ccc(NC(=S)NCC3CCCO3)cc2)cc1` (configuration not stated), for which the cell number change was 13.6%. The AC50 under setting [2] is 0.731 µM [falling, full curve].
For `O=C(CCN1C(=O)c2ccccc2C1=O)NC(=S)Nc1ccccc1Cl`, the cell number change worked out at 11.5%. In addition, the AC50 under setting [2] is 18.4 µM [rising, single point].
